Test results taken from publication PMC10902300.
These are yes or no findings as the source states them, for the method shown. In cells and extracts the contact can be indirect. These calls come from enrichment with a bait or labelling near it, and not all partners need be listed.

Amino acid sequences for entries named in this document (tags omitted).
UniProt P15923: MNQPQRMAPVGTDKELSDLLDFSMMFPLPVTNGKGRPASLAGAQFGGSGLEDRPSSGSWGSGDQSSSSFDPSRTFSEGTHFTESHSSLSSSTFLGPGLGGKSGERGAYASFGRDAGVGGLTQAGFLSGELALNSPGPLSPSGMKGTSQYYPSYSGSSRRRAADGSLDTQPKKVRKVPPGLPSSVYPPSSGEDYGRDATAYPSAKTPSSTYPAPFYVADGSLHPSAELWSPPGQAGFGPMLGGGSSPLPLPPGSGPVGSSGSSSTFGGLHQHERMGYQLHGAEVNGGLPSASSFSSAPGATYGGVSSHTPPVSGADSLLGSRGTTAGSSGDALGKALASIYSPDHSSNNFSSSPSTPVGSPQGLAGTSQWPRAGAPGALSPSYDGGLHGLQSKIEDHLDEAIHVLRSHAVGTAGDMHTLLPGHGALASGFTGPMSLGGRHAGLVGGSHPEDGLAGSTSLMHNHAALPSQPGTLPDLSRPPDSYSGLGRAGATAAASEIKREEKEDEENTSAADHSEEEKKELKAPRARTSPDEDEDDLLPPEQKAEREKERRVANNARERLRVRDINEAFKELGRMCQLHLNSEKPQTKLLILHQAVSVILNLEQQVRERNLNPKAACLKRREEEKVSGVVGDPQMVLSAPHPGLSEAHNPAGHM
UniProt Q13547: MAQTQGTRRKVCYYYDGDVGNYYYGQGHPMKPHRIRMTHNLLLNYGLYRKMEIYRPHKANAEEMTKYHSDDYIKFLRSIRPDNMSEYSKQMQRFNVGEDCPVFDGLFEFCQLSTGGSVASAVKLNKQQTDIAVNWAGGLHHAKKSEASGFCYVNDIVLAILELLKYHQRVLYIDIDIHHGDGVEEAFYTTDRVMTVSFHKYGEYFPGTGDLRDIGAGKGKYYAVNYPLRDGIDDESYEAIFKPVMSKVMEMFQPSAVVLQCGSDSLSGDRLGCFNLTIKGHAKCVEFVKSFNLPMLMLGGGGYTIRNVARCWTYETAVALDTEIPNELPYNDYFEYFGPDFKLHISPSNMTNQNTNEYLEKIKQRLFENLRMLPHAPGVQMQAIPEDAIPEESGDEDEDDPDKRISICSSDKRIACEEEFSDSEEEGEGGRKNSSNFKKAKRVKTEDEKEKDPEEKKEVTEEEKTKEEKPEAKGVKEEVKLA

Target: Tcf3 in Jurkat cells (human (endogenous in Jurkat)) (UniProt P15923)
Assay: affinity purification with mass spectrometry; Jurkat cell lysate on anti-Tcf3 antibody-conjugated resin overnight at 4 °C; eluate separated by SDS-PAGE, gel segments to LC/MS

binding: binds
Substance: HDAC1 in Jurkat cells (from UniProt Q13547 1-482) (enzyme)
